# Source: PubChem BioAssay AID2685 (National Center for Advancing Translational Sciences (NCATS), 2010)
# In all, about 320,000 compounds went through this assay and about 2,100 (0.66%) were called active. This list was built around the results that the source calls inconclusive (neither active nor inactive); the mix of calls is not that of the screen. Calls come from the whole dose curve; as a rule, active = well fitted inhibition curve with a large enough effect in the signal ratio, with a control signal flat (not every such curve was filed as active); inconclusive = small, poorly fitted or top-dose-only effect, or effect the other way, or a change in a side signal; inactive = flat fitted curve, though single readings scatter; the % refers to the signal ratio. Where the call is inconclusive, the potency comes from a doubtful curve fit.
# Assay: qHTS Assay for Lipid Storage Modulators in Drosophila S3 Cells
# Conditions: BODIPY lipid droplet fluorescence, 18-24 h, cells fed with added oleic acid; lipid storage change, negative = inhibition: at 46.1 µM (top of the series) unless noted
# Summary of the method: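 Drosophila S3 cells loaded with oleic acid (400 uM, as added) and compounds at several concentrations; lipid droplets imaged by 488-nm laser-scanning cytometry, 500–530 nm intensity and object ratio to cell channel. Percent activity normalized to 20 uM Triacsin C.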
# % is set by controls: 0 for no effect and ±100 for the full control effect; potency is the fitted concentration of half-maximal effect.
Structure (SMILES),"lipid storage change, negative = inhibition",Potency,outcome
CCCCNC(=O)NC(C(=O)OC)C12CC3CC(CC(C3)C1)C2 (stereo not given),inconclusive: -13.2%,–,–
COc1ccc(/C(C)=C2\SC(=S)N(CCC(=O)O)C2=O)cc1,–,active: 16.4 µM,–
COC(=O)c1c(NC(=O)c2cccs2)sc2c1CCC(C)C2 (stereo not given),inconclusive: -0.309%,–,–
CNC(=O)c1c[nH]c2ccc(S(=O)(=O)Nc3cccc(Cl)c3C)cc2c1=O,inconclusive: 19%,–,–
CC(C)Oc1ccc(S(=O)(=O)N2CCOCC2)cc1NC(=O)CCCSc1ccccc1,inconclusive,–,–
CC(C)NC(=S)n1cc(C(=O)c2cc(Cl)cc(Cl)c2O)cn1,–,"inconclusive: 7.31 µM [falling, partial curve]",–
O=C(NCc1ccncc1)c1cnccn1,inconclusive: -5.85%,–,–
Cn1ncc2c(Nc3cccc([N+](=O)[O-])c3)ncnc21,–,–,inactive [at 46.1 µM]
Cc1cccc(C[C@H](C(=O)O)N2C(=O)c3ccc(C(=O)O)cc3C2=O)c1,inconclusive: 5.02%,–,–
COCCSc1ccccc1C(=O)Nc1cccnc1,inconclusive: 58%,–,–
CC(C)(C)C(=O)Nc1ncc(C(F)(F)F)cc1Cl,inconclusive: -36.2%,–,–
CN(C)C1(CNC(=O)c2cccc(S(=O)(=O)NCc3ccccc3)c2)CCCCC1,–,"inconclusive: 2.06 µM [activator, partial curve, poor fit]",–
NNc1ccc(Cl)c(C(=O)O)c1,inconclusive: -22%,–,–
CCOC(=O)c1sc2nc(C)nc(SC(C)C(=O)NC3CC3)c2c1C (stereo not given),inconclusive: -0.671%,–,–
Cc1cccc(N(CC(=O)NCc2ccc3c(c2)OCO3)C(=O)CCC(=O)Nc2ccccn2)c1,inconclusive: 12.6%,–,–
O=C(CN1CCN(c2ccccc2F)CC1)Nc1nnc(C(F)(F)F)s1,inconclusive: -11.8% [at 9.22 µM],–,–
CCOc1ccc(CN(C)CC(=O)Nc2cc(C)c(C)cc2[N+](=O)[O-])cc1,inconclusive: 43%,–,–
COc1ccccc1NC(=O)C1CCN(C(=O)c2ccco2)CC1,–,"inconclusive: 6.51 µM [activator, single point]",–
COc1ccc(-c2cc3c(=O)n(CC(=O)Nc4ccc(Cl)cc4)ncn3n2)cc1,–,"inconclusive: 6.51 µM [activator, partial curve]",–
COc1cc(C(=O)N/N=C(\Cc2ncc[nH]2)c2ccccc2)cc(OC)c1OC,inconclusive: -22.9%,–,–
Cc1cc(C(=O)Oc2cccnc2)ccc1[N+](=O)[O-],–,"inconclusive: 20.6 µM [falling, single point]",–
Cc1cc(N)n(-c2ccc([N+](=O)[O-])cc2)n1,inconclusive: 29.2%,–,–
COc1ccccc1OCCCOc1cccc(/C=C2\SC(=O)NC2=O)c1,–,"inconclusive: 2.06 µM [activator, partial curve]",–
CC(C)Cc1nnc(NC(=O)CCc2c[nH]c3ccccc23)s1,inconclusive: 11.1%,–,–
CCCn1c(=S)[nH]c2cc(C(=O)N3CCc4ccccc43)ccc2c1=O,–,"inconclusive: 1.46 µM [activator, full curve]",–

# Whole records, looked up by structure. Order of values: lipid storage change, negative = inhibition | Potency | outcome
# `CC(C)NC(=S)n1cc(C(=O)c2cc(Cl)cc(Cl)c2O)cn1` reads – | inconclusive: 7.31 µM [falling, partial curve] | –
# `CCCCNC(=O)NC(C(=O)OC)C12CC3CC(CC(C3)C1)C2` (stereo not given) reads inconclusive: -13.2% | – | –
# `Cc1cc(C(=O)Oc2cccnc2)ccc1[N+](=O)[O-]` reads – | inconclusive: 20.6 µM [falling, single point] | –
# `COc1ccc(-c2cc3c(=O)n(CC(=O)Nc4ccc(Cl)cc4)ncn3n2)cc1` reads – | inconclusive: 6.51 µM [activator, partial curve] | –

# (listing goes on)

Structure (SMILES),"lipid storage change, negative = inhibition",Potency,outcome
Cc1nc(NS(=O)(=O)c2ccccc2)sc1C(=O)NNS(=O)(=O)c1ccccc1,–,"inconclusive: 29.1 µM [activator, single point]",–
COc1cc(CCC(=O)OCC(=O)Nc2c(Cl)cccc2Cl)cc(OC)c1OC,inconclusive: 26%,–,–
O=[N+]([O-])c1cc(Br)c(O)c(/C=N/Nc2nc3ccccc3s2)c1,inconclusive: 28.7%,–,–
COc1ccc(N2C(=O)c3ccc(C(=O)Nc4ccccc4O)cc3C2=O)cc1,–,"inconclusive: 29.1 µM [falling, single point]",–
COc1ccc(-c2noc(-c3ccccc3-c3ccccc3)n2)cc1,inconclusive: -36.3%,–,–
O=C(Cc1c(F)cccc1Cl)Nc1cc(S(=O)(=O)N2CCOCC2)ccc1N1CCOCC1,inconclusive,–,–
COc1ccc(NCc2n[nH]nc2-c2ccccc2)cc1Cl,inconclusive: 0.425%,–,–
COc1ccc(CC(=O)NNC(=O)c2ccc(SCc3cc(F)ccc3F)c([N+](=O)[O-])c2)cc1,–,"inconclusive: 16.4 µM [falling, single point]",–
O=C(Nc1nccs1)c1ccc(Cl)c(S(=O)(=O)N2CCCCC2)c1,inconclusive: 12.7%,–,–
O=C(NC1CC1)c1ccc(NS(=O)(=O)c2ccccc2)cc1,inconclusive: 332%,–,–
N#Cc1ccc(OCC(=O)Nc2ccccc2NS(=O)(=O)c2cccs2)cc1,inconclusive: 56.5%,–,–
CCCCNC(=O)COC(=O)c1ccc(Cl)c(S(N)(=O)=O)c1,–,"inconclusive: 29.1 µM [falling, single point]",–
CCC(=O)c1ccc(O)c(OC)c1,–,"inconclusive: 6.51 µM [falling, single point]",–
NS(=O)(=O)c1ccc(N/N=C/c2cn(-c3ccccc3)nc2-c2cccs2)cc1,–,"inconclusive: 29.1 µM [cytotoxic, single point]",–
c1ccc(-c2ccccc2OCCCCN2CCCCCC2)cc1,inconclusive: 1.38%,–,–
COc1cccc2sc(N(CCN(C)C)C(=O)/C=C/c3cccs3)nc12,inconclusive: -13.8%,–,–
Cc1cc2c(c(=O)n1C1CC1)C(c1cccc(Cl)c1)C(C#N)=C(N)O2 (stereo not given),inconclusive: 20.8%,–,–
Cc1ccc(NC(=O)c2ccc(NCCc3ccccc3)c([N+](=O)[O-])c2)cc1F,inconclusive: -37%,–,–
COc1ccc(NS(=O)(=O)c2cc(NC(=O)Cc3cccs3)ccc2C)cc1,inconclusive: 5.8%,–,–
CCN(CC(=O)Nc1ccc2c(c1)OCCO2)C(=O)c1cc(Cl)nc2ccccc12,inconclusive: 13.4%,–,–
Cn1nc(C(=O)NCCc2ccc(Cl)cc2)c2c1-c1ccccc1S(=O)(=O)C2,inconclusive: 18.7%,–,–
Cc1cc2c(o1)CC(C)(C)CC2=O,inconclusive: 21.2%,–,–
CCCC(=O)Nc1ccc(-c2nc3cc(C)c(C)cc3o2)cc1,inconclusive: -17%,–,–
CC1CCN(S(=O)(=O)c2ccc3c(c2)N(CC(=O)N(C)Cc2ccco2)C(=O)CO3)CC1,–,"inconclusive: 6.51 µM [falling, single point]",–
Cn1c(CSCc2ccccc2Cl)nnc1SCC(=O)Nc1nccs1,–,"inconclusive: 1.3 µM [activator, full curve]",–
